Laboratory results as given in patent US20200199244A1.
These are yes or no findings as the source states them, for the method shown.

What was measured:
[1] = molecular target: chimpanzee CD40 on CD20+ B cells in blood (chimpanzee); test: flow cytometry on whole blood, PE-streptavidin detection, gate on CD20+ B cells
[2] = molecular target: chimpanzee CD40 on CD20+ B cells in blood (chimpanzee); test: flow cytometry on whole blood, anti-PEG detection, gate on CD20+ B cells

Row | Binder | binding [1] | binding [2]
1 | BMS3h38-2-biotin (protein, biotin-conjugated; site not stated) VH: EVQLLASGGGLVQPGGSLRLSCAASGFTFEEEEMIWVRQAPGKGLEWVSAISGSGGSTYYADSVKGRFTISRDNSKNTLYLQMNSLRAEDTAVYYCGKEPFRYDYWGQGTLVTVSS | no binding | 
2 | BMS3h-56-5C-40L (protein, PEGylated; attachment residue not stated) VH: EVQLLESGGGLVQPGGSLRLSCAASGFTFRDYEMWWVRQAPGKGLERVSAINPQGTRTYYADSVMGRFTISRDNSKNTLYLQMNSLRAEDTAVYYCAKLPFTFDDWGQGTLVTVSS |  | no binding
3 | BMS3h38-2C-P40Br (protein, PEGylated; attachment residue not stated) VH: EVQLLASGGGLVQPGGSLRLSCAASGFTFEEEEMIWVRQAPGKGLEWVSAISGSGGSTYYADSVKGRFTISRDNSKNTLYLQMNSLRAEDTAVYYCGKEPFRYDYWGQGTLVTVSS |  | no binding
